Assay results published in PMC5425608.
Results are given in words; binding and its absence hold for the method and conditions named. Binding seen in cells or lysates may run through a third protein. Some entries that bind do so weakly or less than the wild type.

By UniProt entry, the sequences of proteins in these tests, tags left out.
UniProt Q62406: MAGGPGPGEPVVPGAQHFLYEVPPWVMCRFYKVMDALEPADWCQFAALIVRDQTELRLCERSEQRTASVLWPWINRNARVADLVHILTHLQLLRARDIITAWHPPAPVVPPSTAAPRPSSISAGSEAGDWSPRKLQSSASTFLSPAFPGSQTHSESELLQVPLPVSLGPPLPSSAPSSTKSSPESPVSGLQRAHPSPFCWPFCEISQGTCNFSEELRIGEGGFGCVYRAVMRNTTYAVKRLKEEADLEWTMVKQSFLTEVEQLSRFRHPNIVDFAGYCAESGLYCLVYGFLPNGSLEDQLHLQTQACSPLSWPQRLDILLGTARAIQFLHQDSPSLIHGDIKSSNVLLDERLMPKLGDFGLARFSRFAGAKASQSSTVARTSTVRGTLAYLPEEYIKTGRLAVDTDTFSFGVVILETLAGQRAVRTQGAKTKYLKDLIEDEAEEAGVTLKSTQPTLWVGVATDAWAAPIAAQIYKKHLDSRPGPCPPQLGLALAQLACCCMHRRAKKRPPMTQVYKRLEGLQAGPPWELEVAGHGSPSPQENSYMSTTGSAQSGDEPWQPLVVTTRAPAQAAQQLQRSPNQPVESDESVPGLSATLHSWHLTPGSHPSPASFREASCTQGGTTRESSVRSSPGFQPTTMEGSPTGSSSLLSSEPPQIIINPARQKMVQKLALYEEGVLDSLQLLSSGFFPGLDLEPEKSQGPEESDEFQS

Target: T1, endogenous TRAF6, mouse embryonic fibroblasts (mouse (endogenous in MEFs)) (UniProt P70196)
T1 sequence: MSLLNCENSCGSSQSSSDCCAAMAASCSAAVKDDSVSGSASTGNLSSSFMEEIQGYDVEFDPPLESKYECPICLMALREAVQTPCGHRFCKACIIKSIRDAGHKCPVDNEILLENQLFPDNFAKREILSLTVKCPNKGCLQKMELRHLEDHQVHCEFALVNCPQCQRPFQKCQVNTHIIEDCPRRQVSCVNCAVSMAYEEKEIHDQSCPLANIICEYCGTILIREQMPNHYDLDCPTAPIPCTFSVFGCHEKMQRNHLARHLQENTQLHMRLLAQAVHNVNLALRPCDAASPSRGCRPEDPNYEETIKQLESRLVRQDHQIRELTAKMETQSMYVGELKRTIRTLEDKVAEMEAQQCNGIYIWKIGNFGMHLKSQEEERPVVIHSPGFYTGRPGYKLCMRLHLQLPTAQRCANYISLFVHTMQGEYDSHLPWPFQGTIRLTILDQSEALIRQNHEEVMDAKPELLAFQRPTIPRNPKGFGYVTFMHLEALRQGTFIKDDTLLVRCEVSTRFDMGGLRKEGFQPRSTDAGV
Assay: co-IP; endogenous proteins; LRRK2 +/+ or LRRK2 -/- MEFs treated with 50 ng/ml IL-1β for the indicated times; IP with anti-TRAF6, blot with anti-IRAK1; pre-immune IgG as control

binding: binds
Substance: endogenous IRAK1, mouse embryonic fibroblasts (from UniProt Q62406 1-710) (enzyme)
